The results in this text go back to paper PMC6548132, “Engineered SUMO/protease system identifies Pdr6 as a bidirectional nuclear transport receptor” (The Journal of Cell Biology, 2019).

B1: Msn5 (eGFP-tagged, E. coli lysate) (protein, UniProt P52918 1-1224)
chain: MDSTGASQIVSALDVIYSPKSNNSQRQEAQKFLDEVKLCSESPFWGYEIALQNPTNSILKYFGLGLLDHAVKKNWNDYDEGKRVALRKWVMELNFGVQDYDTRYIKEKLATLWVEVAKRTWGEALKQTNPTEEQLLTSWVDMDNNLFELWNINQSSRELALIIFRILFEDVFLLDDLIVLKRMTVIQPLCVMIVCPIEVFAIKYKFSDKWTKFKANEEGWFSVWIPELNNALQQNNSEYIIRLLETLKTCLNWPLTEVIVRNDVLSSLLTCLSSNIPRAQSMALDSIHILLTRPYSNESHYQMTIDRVFDNMDLLDSVYESLLFDPTDDIDETKYPIIKKFVDMISCLYVCVPKIKETNGQIQKYFKLVLKTTYNPSLIVSGLTLDLWCTCLRNDEYLPKLEKYVIPDLLQFAADALVYYEQIDGHISKKFAEIDFQSKSEFQTFCSTYRKRIRDIIRLISCVELDLTYDWLNNRLNNYFSSPFGQQVLSSTFLDHKLEPYLGALSQYMIVECFINGCIRWKIWYPTGDDYDEKLDSILQKLEILSNQLIALNLREPLLLKKQIQNFALFLTMLKDNVLFTLLEKIITSATMDYPEINLEERGAESDAVRDLRYACGIELNRMALLMPESLKKIYPDLESVIARIMPNLSYHEKISFKSFLLIIVLKSSLDMKEERFAAIVDPELLAWSDKTTVVGLSDLHWFMERLGIVQIAEYFQRRDIDENSDLLSIPIDDEGKELKSELTKRWQSLFPVRATRMFIHYSMQSIKTDEEFKMLQDLWRPRIVPILPYITRLLYQLQSYHDPDNWKGLPTVVQSFVKYSTIERFWEAGASNKSKDEFIDEHMKAMQTLRDFADSVGHIIRYTREYTLLVLSAISSLGSVFYLLDESPDLLLNSIAIFKPGSNEISPGVSTHGWKHIMNIAIRPILKGCPKDCLGKFMPAFLPKLFEILDLLLCQKWSSHMNDMDMNPVPTDDDQMTEEILEENLLRQLTTVVVRIVIDCVGQGNANPNSAKSRLNNHQMEMRKIIFNDLNTLAPFLKLLNHLISFKDTKCSFNSILVMKCCLTSVLNQNNTVDEYFTFEVMKNLLLNVLCNSAFKDSFHEALYAFTVIFLTLCKEYPSARAFLFEISNGYNIDELYRNLRSVDEYKTQRALMIDFIDWVKSTSGKEDGNVDHAGDERKRQEKREAILKKANERLIKKNKENGDMLDDPNIEDGAVGNLFDDN
B2: Mtr10 (eGFP-tagged, E. coli lysate) (protein, UniProt Q99189 1-972)
chain: MDNLQVSDIETALQCISSTASQDDKNKALQFLEQFQRSTVAWSICNEILSKEDPTNALLELNIFAAQTLRNKVTYDLSQLENNLPQFKDSLLTLLLSHNQKLIITQLNVALARLAIQFLEWQNPIFEIISLLNSSPSILLNFLRILPEETLDIASTSLTEVEFNSRIHELIDPIAEDVLKFLVSCIDLLQNTDGNSSSSISLEQILRCLNSWSYEFPVEQLLTVQPLINLVFETISNGNESDMEAFDSAIDCLCVILRESRDTTNEQLISALFHQLMLLQEKLLPTLFTDHPLNDEYDDDLLEGMTRLFVEAGEAWSVVISKNPDFFKPMVLVLLMLTCKNEDLDVVSYTFPFWFNFKQSLVLPRYQESRKAYSDIFVKLINGIITHLQYPSGQFSSKEEEDKFKDFRYHMGDVLKDCTAVVGTSEALSQPLIRIKSAIENNNSWQIMEAPLFSLRTMAKEISLTENTILPEIIKIICNLPEQAKIRYASTLVLGRYTEWTAKHPELLEVQLQYIFNGFQLHEGSSDMQSIITASSHALMFFCSDCSKLLVGYIDQLINFFLNVQSSIDIESQFELCQGLSAVINNQPEAKVSVIFQKLVDDNLRQIEALIPQWKANPTLLAPQIADKIDLLYALFEELKPRYNYPQQGSEPLLPRIEFIWKALRTLLVDAGAMTDSIIVERVAKLLRRIFERFHVFCEPILPSVAEFLIQGYLTTGFGSYLWCSGSLIVIFGDDESFPISPSLKDAVWKFALSQCETFILNFNKFDKLQLNDYHEAIIDFFSLISDLIMFYPGAFLNSTELLGPVLNVALECVNKLDNYDAYICILRCLDDIISWGFKTPPISTVSIEIVPDEWRKQVINEVVIAHGNQLILVLFIGLVTTFENTAHSDAISCIVKCLRILTEANNNDATICIDWIYKVVEQLGQVTLNERDNLAKAVVEGLNSKDYRKVREGIRAFVGWYSRKNINSRFE
B3: Nmd5 (eGFP-tagged, E. coli lysate) (protein, UniProt P46970 1-1048)
chain: MDITELLQCFACTLDHNAAVRTNAETHLKNASKVPGFLGACLDIIAADEVPENIKLSASLYFKNKITYGWSAGARQGSNELLDSHVDPDEKPVVKDMLIKTMVSVSKTSPRCIRVLKSALTVIISEDYPSKKWGNLLPNSLELLANEDITVTYVGLLCLAEIFRTYRWKNNDERQDLEELILNYFPALLNYGANVLFQDGKYMNNEQIGELVKLIIKIYKFVSYHDLPFTLQRSESFTPWACFFVSIIQQPLPQEVLAISDIEVRSKNPWVKCKKWALANLYRLFQRYASTSLTRKFQYDEFKQMYCEEFLTQFLQVVFDQIEKWGTGQLWLSDECLYYILNFVEQCVVQKTTWKLVGPHYNVILQHVIFPLLKPTAETLEAFDNDPQEYINRNMDFWDVGYSPDLAALALLTTCVTKRGKTTLQPTLEFMVSTLQSAVGDYNNIMLDNALQIESCLRIFSSIIDRLITKDSPFASEMEKFILTYVLPFFKSQYGFLQSRVCDICSKLGSMDFKDPVITSTIYEGVMNCLNNSSNSLPVELTAALALQTFISDDQFNMKLSEHVVPTMQKLLSLSNDFESDVISGVMQDFVEQFAEQLQPFGVELMNTLVQQFLKLAIDLHETSNLDPDSFTNVDSIPDESDKQMAALGILSTTISILLSFENSPEILKNLEQSFYPAAEFILKNDIEDFYRECCEFVENSTFLLRDITPISWKILELIGECNRKPDSMVSYYLSDFMLALNNILIYGRNELKKNEFYTKIIFEIYQKAVTAEDNSLDDLRVVFDLSQELVLALDDSLPQQYRERLLADVVGSILTQKNELKTNVVFSVTAFNVVISNMITEPLITLQYLKQQGCLEIFFQTWITDYIPNYKRCYDIKLSVLALLKIILKLESNDYSVLNLENLVPQLGSIVTQLASRLPTALRQLANQRKEFSSSGFEEDTKWDENFLDVGDDDENDDEGDLTEKYLELIKNRADSLDFVDGYDAKETFDDLEEDPLTGSILDTVDVYKVFKESIANLQHVDSNRYQGILRHLTPADQELFMGIMNA
B4: eGFP-tagged Pdr6 in E. coli lysate (protein, UniProt P32767 1-1081)
chain: MSSIHEVVALIEELYSPHPKHDVNQIQQSLQSIQKSEQGFHLANELLSDDKYSANVKYFGALTLTVQLNTRGENDYETLWNVFRSNLLYLTKFSTLYVSNPNMYGQSLIIIKKLMSNLSLIFTKINDPQLNNAGNENMIKQWNNPINTFIQLMSVQNQNINADQLLLDSINCSLTYEQLSQFVSLSQKHNELALTFTEVIVEDLTKFQTKRHSMSQIHEVVHEHLYISTMALINLNLTAQAVFNPTVFDCITAWINYISLTRSVSSSGRMDLSEIFQNLIDLMYQSTEGSDGYENAEKILTIFGNVFANDPLLMSYDLRQQIECIFLGVVRPDSGITDISNKNSWMLQYMNYLVTNDFFSELKELAICIVDFLQINTLSVCNKLFTNIQAADNGQVQDEYIQEYIKVLLQMTNFPLTPVLQEFFSVRMVDFWLDLSDAYTNLASETLRPNSIELSTQIFQQLINIYLPKISLSVKQRIIEEEGESTSVNEFEDFRNAVSDLAQSLWSILGNDNLTNVLIDGMGQMPAASDETLIIKDTDVLFRIETMCFVLNTILVDMTLSESPWIKNIVDANKFFNQNVISVFQTGFQTSASTKVSQILKLDFVRTSTTLIGTLAGYFKQEPFQLNPYVEALFQGLHTCTNFTSKNEQEKISNDKLEVMVIKTVSTLCETCREELTPYLMHFISFLNTVIMPDSNVSHFTRTKLVRSIGYVVQCQVSNGPEEQAKYILQLTNLLSGSIEHCLASSVQLQEQQDYINCLLYCISELATSLIQPTEIIENDALLQRLSEFQSFWSSDPLQIRSKIMCTIDKVLDNSIYCKNSAFVEIGCLIVGKGLNLPDGEPYFLKYNMSEVMNFVLRHVPNCELATCLPYFVYLLEKLISEFRKELTPQEFDFMFEKILLVYYDAYIINDPDLLQMTIGFVNNVLDVKPGLAIGSKHWTSFILPQFLKLIPSREKFTIVAVAKFWTKLINNKKYNQEELTTVRQQVSSIGGDLVYQIMYGLFHTQRSDLNSYTDLLRALVAKFPIEAREWLVAVLPQICNNPAGHEKFINKLLITRGSRAAGNVILQWWLDCTTLPNYQG

No constants are given. Whether binding was seen depends on the method and setting. Binding seen in cells or lysates may run through a third protein. Some entries that bind do so weakly or less than the wild type. Where a sequence is shown, tags or fusion partners need not be part of it.

This assay concerns the target T1, H14-ZZ-NEDD8–tagged Ubc9 (yeast (S. cerevisiae)) (UniProt P50623).
T1 sequence: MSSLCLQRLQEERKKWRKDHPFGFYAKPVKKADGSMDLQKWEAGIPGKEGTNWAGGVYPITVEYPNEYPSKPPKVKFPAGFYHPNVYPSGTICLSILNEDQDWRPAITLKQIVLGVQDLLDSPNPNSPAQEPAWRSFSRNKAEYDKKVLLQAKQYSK
The assay can be described thus: pull-down; H14-ZZ-NEDD8-Ubc9 added to E. coli lysates each containing 3 µM of a different eGFP-tagged yeast NTR; anti-ZZ/ED affibody matrix, elution by tag cleavage; SDS-PAGE/Coomassie; only the target purified.
For the molecule B1, the binding result is “no binding (tested: 3 µM)”.

In the case of B2, the binding entry is given as “no binding (tested: 3 µM)”.

Turning to B3, the binding entry is reported as “no binding (tested: 3 µM)”.

For the molecule B4, the binding entry is reported as “binds”.
